# Assay results published in the supplement of paper PMC8728848.
# Some of the results follow.
# Columns and labels:
# Assay in all cases: glycan array binding signal (z-score within array); higher = stronger binding
# Details in all cases: glycan notation: IUPAC condensed, linker removed
# [1] = target: Gal(b1-4)GlcNAc(b1-3)Gal(b1-4)GlcNAc(b1-3)Gal(b1-4)GlcNAc
# Outline: (§1)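 Glycan array data were curated from 3228 arrays in the Consortium for Functional Glycomics database and kept only where the protein sequence was available. Glycan names were converted to IUPAC-condensed notation, and columns mapping to the same glycan were averaged. The binding signal is a within-array Z-score, averaged across arrays of the same protein sequence at different concentrations or buffers and across linkers. Negative Z-scores can be read as non-binding.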
# [2] = target: Gal(b1-4)GlcNAc(b1-3)Gal(b1-4)GlcNAc(b1-3)Gal(b1-4)GlcNAc(b1-2)Man(a1-3)[Gal(b1-4)GlcNAc(b1-3)Gal(b1-4)GlcNAc(b1-3)Gal(b1-4)GlcNAc(b1-2)Man(a1-6)]Man(b1-4)GlcNAc(b1-4)GlcNAc
# Outline: as §1
# [3] = target: Gal(b1-4)GlcNAc(b1-3)Gal(b1-4)GlcNAc(b1-3)Gal(b1-4)GlcNAc(b1-2)Man(a1-3)[Gal(b1-4)GlcNAc(b1-3)Gal(b1-4)GlcNAc(b1-3)Gal(b1-4)GlcNAc(b1-2)Man(a1-6)]Man(b1-4)GlcNAc(b1-4)[Fuc(a1-6)]GlcNAc
# Outline: as §1
# [4] = target: Gal(b1-4)GlcNAc(b1-3)Gal(b1-4)GlcNAc(b1-3)Gal(b1-4)GlcNAc(b1-2)[Gal(b1-4)GlcNAc(b1-3)Gal(b1-4)GlcNAc(b1-3)Gal(b1-4)GlcNAc(b1-6)]Man(a1-6)[Gal(b1-4)GlcNAc(b1-3)Gal(b1-4)GlcNAc(b1-3)Gal(b1-4)GlcNAc(b1-2)Man(a1-3)]Man(b1-4)GlcNAc(b1-4)[Fuc(a1-6)]GlcNAc
# Outline: as §1
# [5] = target: Gal(b1-4)GlcNAc(b1-3)Gal(b1-4)GlcNAc(b1-3)Gal(b1-4)GlcNAc(b1-3)Gal(b1-4)GlcNAc(b1-2)Man(a1-3)[Gal(b1-4)GlcNAc(b1-3)Gal(b1-4)GlcNAc(b1-3)Gal(b1-4)GlcNAc(b1-3)Gal(b1-4)GlcNAc(b1-2)Man(a1-6)]Man(b1-4)GlcNAc(b1-4)GlcNAc
# Outline: as §1
# [6] = target: Gal(b1-4)GlcNAc(b1-3)Gal(b1-4)GlcNAc(b1-3)Gal(b1-4)GlcNAc(b1-3)Gal(b1-4)GlcNAc(b1-2)Man(a1-3)[Gal(b1-4)GlcNAc(b1-3)Gal(b1-4)GlcNAc(b1-3)Gal(b1-4)GlcNAc(b1-3)Gal(b1-4)GlcNAc(b1-2)Man(a1-6)]Man(b1-4)GlcNAc(b1-4)[Fuc(a1-6)]GlcNAc
# Outline: as §1
# [7] = target: Gal(b1-4)GlcNAc(b1-3)Gal(b1-4)GlcNAc(b1-3)Gal(b1-4)GlcNAc(b1-3)Gal(b1-4)GlcNAc(b1-2)[Gal(b1-4)GlcNAc(b1-3)Gal(b1-4)GlcNAc(b1-3)Gal(b1-4)GlcNAc(b1-3)Gal(b1-4)GlcNAc(b1-6)]Man(a1-6)[Gal(b1-4)GlcNAc(b1-3)Gal(b1-4)GlcNAc(b1-3)Gal(b1-4)GlcNAc(b1-3)Gal(b1-4)GlcNAc(b1-2)Man(a1-3)]Man(b1-4)GlcNAc(b1-4)[Fuc(a1-6)]GlcNAc
# Outline: as §1
# [8] = target: Gal(b1-4)GlcNAc(b1-3)Gal(b1-4)GlcNAc(b1-3)Gal(b1-4)GlcNAc(b1-3)Gal(b1-4)GlcNAc(b1-3)Gal(b1-4)GlcNAc(b1-2)Man(a1-3)[Gal(b1-4)GlcNAc(b1-3)Gal(b1-4)GlcNAc(b1-3)Gal(b1-4)GlcNAc(b1-3)Gal(b1-4)GlcNAc(b1-3)Gal(b1-4)GlcNAc(b1-2)Man(a1-6)]Man(b1-4)GlcNAc(b1-4)GlcNAc
# Outline: as §1
# [9] = target: Gal(b1-4)GlcNAc(b1-3)Gal(b1-4)GlcNAc(b1-3)Gal(b1-4)GlcNAc(b1-3)Gal(b1-4)GlcNAc(b1-3)Gal(b1-4)GlcNAc(b1-2)Man(a1-3)[Gal(b1-4)GlcNAc(b1-3)Gal(b1-4)GlcNAc(b1-3)Gal(b1-4)GlcNAc(b1-3)Gal(b1-4)GlcNAc(b1-3)Gal(b1-4)GlcNAc(b1-2)Man(a1-6)]Man(b1-4)GlcNAc(b1-4)[Fuc(a1-6)]GlcNAc
# Outline: as §1
# [10] = target: Gal(b1-4)GlcNAc(b1-3)Gal(b1-4)GlcNAc(b1-3)Gal(b1-4)GlcNAc(b1-3)Gal(b1-4)GlcNAc(b1-3)Gal(b1-4)GlcNAc(b1-2)[Gal(b1-4)GlcNAc(b1-3)Gal(b1-4)GlcNAc(b1-3)Gal(b1-4)GlcNAc(b1-3)Gal(b1-4)GlcNAc(b1-3)Gal(b1-4)GlcNAc(b1-6)]Man(a1-6)[Gal(b1-4)GlcNAc(b1-3)Gal(b1-4)GlcNAc(b1-3)Gal(b1-4)GlcNAc(b1-3)Gal(b1-4)GlcNAc(b1-3)Gal(b1-4)GlcNAc(b1-2)Man(a1-3)]Man(b1-4)GlcNAc(b1-4)[Fuc(a1-6)]GlcNAc
# Outline: as §1
# [11] = target: Gal(b1-4)GlcNAc(b1-3)Gal(b1-4)GlcNAc(b1-3)Gal(b1-4)GlcNAc(b1-3)Gal(b1-4)GlcNAc(b1-3)Gal(b1-4)GlcNAc(b1-3)Gal(b1-4)GlcNAc(b1-2)Man(a1-3)[Gal(b1-4)GlcNAc(b1-3)Gal(b1-4)GlcNAc(b1-3)Gal(b1-4)GlcNAc(b1-3)Gal(b1-4)GlcNAc(b1-3)Gal(b1-4)GlcNAc(b1-3)Gal(b1-4)GlcNAc(b1-2)Man(a1-6)]Man(b1-4)GlcNAc(b1-4)GlcNAc
# Outline: as §1
# [12] = target: Gal(b1-4)GlcNAc(b1-3)Gal(b1-4)GlcNAc(b1-3)GalNAc
# Outline: as §1
# [13] = target: Gal(b1-4)GlcNAc(b1-3)Gal(b1-4)GlcNAc(b1-3)[Gal(b1-4)GlcNAc(b1-3)Gal(b1-4)GlcNAc(b1-6)]GalNAc
# Outline: as §1
# [14] = target: Gal(b1-4)GlcNAc(b1-3)Gal(b1-4)GlcNAc(b1-6)[Gal(b1-3)]GalNAc
# Outline: as §1
# [15] = target: Gal(b1-4)GlcNAc(b1-3)Gal(b1-4)[Fuc(a1-3)GlcNAc(b1-6)]Gal(b1-4)Glc
# Outline: as §1
# [16] = target: Gal(b1-4)GlcNAc(b1-3)Gal(b1-4)[Fuc(a1-3)]GlcNAc(b1-3)Gal(b1-4)[Fuc(a1-3)]GlcNAc
# Outline: as §1
# [17] = target: Gal(b1-4)GlcNAc(b1-3)GalNAc
# Outline: as §1
# [18] = target: Gal(b1-4)GlcNAc(b1-3)[Fuc(a1-3)GlcNAc(b1-6)]Gal(b1-4)Glc
# Outline: as §1
# [19] = target: Gal(b1-4)GlcNAc(b1-3)[Gal(b1-4)GlcNAc(b1-6)]Gal(b1-4)GlcNAc
# Outline: as §1
# [20] = target: Gal(b1-4)GlcNAc(b1-3)[Gal(b1-4)GlcNAc(b1-6)]GalNAc
# Outline: as §1
# [21] = target: Gal(b1-4)GlcNAc(b1-3)[GlcNAc(b1-6)]Gal(b1-4)GlcNAc
# Outline: as §1
# [22] = target: Gal(b1-4)GlcNAc(b1-6)Gal(b1-4)GlcNAc
# Outline: as §1
# [23] = target: Gal(b1-4)GlcNAc(b1-6)GalNAc
# Outline: as §1
# [24] = target: Gal(b1-4)GlcNAc(b1-6)[Gal(b1-3)]GalNAc
# Outline: as §1
# [25] = target: Gal(b1-4)GlcNAc(b1-6)[Gal(b1-4)GlcNAc(b1-3)]GalNAc
# Outline: as §1
# [26] = target: Gal(b1-4)GlcNAc6P
# Outline: as §1
# [27] = target: Gal(b1-6)Gal
# Outline: as §1
# [28] = target: Gal3S(b1-3)GalNAc
# Outline: as §1
# [29] = target: Gal3S(b1-3)GlcNAc
# Outline: as §1
# [30] = target: Gal3S(b1-3)[Fuc(a1-4)]GlcNAc
# Outline: as §1
# [31] = target: Gal3S(b1-4)Glc
# Outline: as §1
# [32] = target: Gal3S(b1-4)Glc6S
# Outline: as §1
# [33] = target: Gal3S(b1-4)GlcNAc
# Outline: as §1
# [34] = target: Gal3S(b1-4)GlcNAc6S
# Outline: as §1
# [35] = target: Gal3S(b1-4)[Fuc(a1-3)]Glc
# Outline: as §1
# [36] = target: Gal3S(b1-4)[Fuc(a1-3)]Glc6S
# Outline: as §1
# [37] = target: Gal3S(b1-4)[Fuc(a1-3)]GlcNAc
# Outline: as §1
# [38] = target: Gal3S(b1-4)[Fuc(a1-3)]GlcNAc6S
# Outline: as §1
# [39] = target: Gal3S4S(b1-4)GlcNAc
# Outline: as §1
# [40] = target: Gal3S6S(b1-4)GlcNAc
# Outline: as §1
# [41] = target: Gal3S6S(b1-4)GlcNAc6S
# Outline: as §1
# [42] = target: Gal4S(b1-4)GlcNAc
# Outline: as §1
# [43] = target: Gal4S6S(b1-4)GlcNAc
# Outline: as §1
# [44] = target: Gal6P(b1-4)GlcNAc
# Outline: as §1
# [45] = target: Gal6S(b1-3)GlcNAc
# Outline: as §1
# [46] = target: Gal6S(b1-3)GlcNAc6S
# Outline: as §1
# [47] = target: Gal6S(b1-4)Glc
# Outline: as §1
# [48] = target: Gal6S(b1-4)Glc6S
# Outline: as §1
# [49] = target: Gal6S(b1-4)GlcNAc
# Outline: as §1
# [50] = target: Gal6S(b1-4)GlcNAc6S
# Outline: as §1
# [51] = target: GalNAc(a1-3)Gal
# Outline: as §1
# [52] = target: GalNAc(a1-3)GalNAc
# Outline: as §1
binder,measurement,setting,value
KISKRILTGKK [NK11 (Sus scrofa)],glycan array binding signal (z-score),[1],-0.612
same,glycan array binding signal (z-score),[2],0.967
same,glycan array binding signal (z-score),[3],2.04
same,glycan array binding signal (z-score),[4],1.62
same,glycan array binding signal (z-score),[5],-0.35
same,glycan array binding signal (z-score),[6],1.5
same,glycan array binding signal (z-score),[7],1.05
same,glycan array binding signal (z-score),[8],1.31
same,glycan array binding signal (z-score),[9],-0.483
same,glycan array binding signal (z-score),[10],0.416
same,glycan array binding signal (z-score),[11],2.32
same,glycan array binding signal (z-score),[12],2.91
same,glycan array binding signal (z-score),[13],3.55
same,glycan array binding signal (z-score),[14],1
same,glycan array binding signal (z-score),[15],-0.277
same,glycan array binding signal (z-score),[16],-0.368
same,glycan array binding signal (z-score),[17],-0.313
same,glycan array binding signal (z-score),[18],0.984
same,glycan array binding signal (z-score),[19],-0.152
same,glycan array binding signal (z-score),[20],-0.392
same,glycan array binding signal (z-score),[21],-0.631
same,glycan array binding signal (z-score),[22],-0.621
same,glycan array binding signal (z-score),[23],-0.343
same,glycan array binding signal (z-score),[24],-0.27
same,glycan array binding signal (z-score),[25],-0.609
same,glycan array binding signal (z-score),[26],0.202
same,glycan array binding signal (z-score),[27],-0.797
same,glycan array binding signal (z-score),[28],0.282
same,glycan array binding signal (z-score),[29],0.54
same,glycan array binding signal (z-score),[30],0.528
same,glycan array binding signal (z-score),[31],1.28
same,glycan array binding signal (z-score),[32],0.768
same,glycan array binding signal (z-score),[33],-0.361
same,glycan array binding signal (z-score),[34],3.4
same,glycan array binding signal (z-score),[35],1.21
same,glycan array binding signal (z-score),[36],1.04
same,glycan array binding signal (z-score),[37],2.52
same,glycan array binding signal (z-score),[38],1.8
same,glycan array binding signal (z-score),[39],0.324
same,glycan array binding signal (z-score),[40],1.39
same,glycan array binding signal (z-score),[41],1.05
same,glycan array binding signal (z-score),[42],0.093
same,glycan array binding signal (z-score),[43],0.494
same,glycan array binding signal (z-score),[44],-0.08
same,glycan array binding signal (z-score),[45],0.136
same,glycan array binding signal (z-score),[46],3.65
same,glycan array binding signal (z-score),[47],0.115
same,glycan array binding signal (z-score),[48],0.976
same,glycan array binding signal (z-score),[49],-0.042
same,glycan array binding signal (z-score),[50],2.58
same,glycan array binding signal (z-score),[51],-0.634
same,glycan array binding signal (z-score),[52],-0.05

# No new results follow: an excerpt of the list.
binder,measurement,setting,value
KISKRILTGKK [NK11 (Sus scrofa)],glycan array binding signal (z-score),[37],2.52
same,glycan array binding signal (z-score),[38],1.8
same,glycan array binding signal (z-score),[39],0.324
same,glycan array binding signal (z-score),[40],1.39
same,glycan array binding signal (z-score),[41],1.05
same,glycan array binding signal (z-score),[42],0.093
same,glycan array binding signal (z-score),[43],0.494
same,glycan array binding signal (z-score),[44],-0.08
same,glycan array binding signal (z-score),[45],0.136
same,glycan array binding signal (z-score),[46],3.65
